This is one part of the list. Further columns of the screen follow, without active or inactive calls. Compounds called inactive in the main read-out are mostly missing here. Potencies come from curve fits of mixed quality, noted in brackets.
Assay: qHTS Assay for Lipid Storage Modulators in Drosophila S3 Cells;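 for cell number change: cells counted by Cell Tracker Red CMTPX staining in the red channel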
Conditions: BODIPY lipid droplet fluorescence, 18-24 h; for cell number change: measured here: cell count max response, cells fed with added oleic acid
Method in brief: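 Laser-scanning cytometry quantifies lipid droplet accumulation (500–530 nm total intensity; droplet/cell object ratio) in oleic acid-fed (400 uM added) Drosophila S3 cells treated with a concentration series. 20 uM Triacsin C defined 100% inhibition.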

[1] = measured here: lipid fluorescence (Fed channel) AC50, cells fed with added oleic acid
[2] = measured here: cell number channel AC50, cells fed with added oleic acid

| Structure (SMILES) | cell number change [%] | AC50 [1] | AC50 [2] |
| --- | --- | --- | --- |
| CC(CCc1ccccc1)NC(=O)CC(C)c1ccccc1 (configuration not stated) | -16.8 | 3.26 µM [rising, full curve] | – |
| CCCCCCC[N+](CC)(CC)CCCCc1ccc(Cl)cc1 | -45.7 | 3.26 µM [falling, partial curve] | 29.1 µM [falling, single point] |
| CC(C)C(NS(=O)(=O)c1cccc2nsnc12)C(=O)NC1CCCCC1C (configuration not stated) | – | 6.51 µM [rising, single point] | – |
| Cc1cccc(S(=O)(=O)NC(Cc2c[nH]c3ccccc23)C(=O)O)c1 (configuration not stated) | – | 0.116 µM [falling, full curve, poor fit] | – |
| CCOC(=O)c1c(NC(=O)CN2CCOCC2)sc2c1CC(C)(C)OC2 | -17.1 | – | – |
| CC(=O)NC(=S)c1c(N)n(Cc2ccccc2)c(=O)n(C)c1=O | 34 | 9.2 µM [rising, partial curve] | 6.51 µM [rising, full curve, poor fit] |
| CCOC(=O)CSc1nnc(COc2cccc(C)c2)o1 | -1.11 | 0.517 µM [rising, full curve, poor fit] | – |
| Cn1nccc1C(=O)Nc1ccc(Cl)cc1 | 36.7 | – | 32.6 µM [rising, single point] |
| CN1CCN(C(=S)NC(=O)c2ccc(Br)cc2)CC1 | -14.3 | 29.1 µM [falling, single point] | – |
| CC(C)CN1CCCC(N2CCN(c3cccc(Cl)c3)CC2)C1 (configuration not stated) | 8.92 | 20.6 µM [rising, single point] | – |
| CC(OCC(O)CN(C)CCOc1ccccc1)c1ccc(Cl)cc1 (configuration not stated) | -9.18 | – | – |
| CC(C)(C)n1ncc2c(=O)n(CC(=O)N3CCCCCC3)cnc21 | 21.2 | 1.84 µM [rising, full curve] | – |
| CCOC(=O)/C(C#N)=C/C1=C(N2CCCC2)CC(C)(C)OC1 | 38.6 | 16.4 µM [rising, partial curve] | 5.8 µM [rising, full curve] |
| Cn1nc(OC(=O)Nc2ccc(Cl)cc2)cc1C(F)(F)F | 19 | 8.2 µM [falling, partial curve] | – |
| COc1ccc(OC)c(CNC(=O)Cc2c(C(=O)O)[nH]c3ccccc23)c1 | 0.8 | 1.03 µM [falling, full curve] | – |
| COC(=O)c1ccc(COc2ccc(/C=C/C(=O)c3ccc(OC)c(CSCC(=O)O)c3)cc2OC)cc1 | -34.5 | – | 0.164 µM [falling, single point] |
| Cc1ccc(-n2nc(C)c(=O)c(-c3ccccc3)c2NC(=O)c2cccs2)cc1 | – | 2.31 µM [falling, partial curve] | 0.184 µM [falling, full curve, poor fit] |
| CCCCC(C)n1[nH]c(=O)c2c(C)cc(C)nc21 (configuration not stated) | -2.88 | – | – |
| CCCCCC(=O)NC(=S)Nc1ccc(N2CCOCC2)cc1 | 31.3 | – | 29.1 µM [rising, single point] |
| CCSc1ccc(-c2nn(-c3ccccc3)cc2/C=C(/C#N)C(=O)NCCCOC)cc1 | -54.7 | 7.31 µM [falling, partial curve] | 8.2 µM [falling, partial curve] |

| Structure (SMILES) | cell number change [%] | AC50 [1] | AC50 [2] |
| --- | --- | --- | --- |
| CCS(=O)(=O)/N=C(\N)c1ccccc1 | 0.408 | – | – |
| Cc1nc2ccccc2n1CC(=O)N/N=C\c1ccccn1 | -50.8 | – | – |
| C=CCN(C(=O)c1cc(C)cc(C)c1)C1(C(=O)Nc2ccccc2)CCN(C(C)C)CC1 | -10.5 | 0.13 µM [falling, full curve, poor fit] | – |
| CCc1cccc(NC(=O)c2cnn(-c3ccccc3)c2C)c1 | -31.7 | 29.1 µM [falling, single point] | 25.9 µM [falling, single point] |
| COc1ccccc1C(=O)N(Cc1ccc(C)o1)C1CCS(=O)(=O)C1 (configuration not stated) | 13.9 | 2.06 µM [rising, partial curve, poor fit] | – |
| C=C(C)c1cccc(C(C)(C)NC(=O)Nc2ncccn2)c1 | – | 6.51 µM [falling, single point] | – |
| Cc1nc(SCC(=O)Nc2ccc(N3CCOCC3)cc2)nc(C)c1C | -8.37 | – | – |
| COc1ccccc1C(=O)N1CCN(CCNC(=O)C(=O)Nc2ccc(Br)c(C)c2)CC1 | 20.8 | 6.51 µM [rising, single point] | – |
| CCCN(CC(=O)Nc1cc(Cl)cc(Cl)c1)CC(=O)Nc1ccc(F)c(F)c1F | -14.9 | 16.4 µM [falling, partial curve] | – |
| O=C(O)C1CC(=O)N(CCOc2ccccc2)C1 (configuration not stated) | -23.2 | 1.46 µM [falling, full curve] | – |
| COc1ccccc1N1CCN(C(=O)/C=C/c2c(Cl)nc3ccccn23)CC1 | 33.6 | – | 3.66 µM [rising, full curve] |
| CC(=O)c1c(C)nn(CCC(=O)O)c1C | 9.62 | 18.4 µM [falling, partial curve] | 0.092 µM [falling, full curve, poor fit] |
| Cn1c(=O)c(C(=O)Nc2ncccn2)c(O)c2ccccc21 | -9.38 | – | – |
| COC(=O)c1ccccc1NC(=O)c1ccccc1OC | -16.7 | 11.6 µM [rising, single point] | – |
| C1=Cc2ccccc2Nc2ccccc21 | -42.8 | 18.4 µM [falling, single point] | 18.4 µM [falling, single point] |
| CNCCCC1c2ccccc2C=Cc2ccccc21 | -13.3 | 2.91 µM [falling, partial curve, poor fit] | – |
| O=C(CNc1ccc(C(F)(F)F)cc1[N+](=O)[O-])OCC(=O)c1ccccc1 | 50.4 | – | 0.92 µM [rising, full curve] |
| O=C1C=C(c2cc(Cl)cc(Cl)c2)C[C@@H](c2ccc(F)cc2)C1 | -20.6 | 0.116 µM [falling, single point] | – |
| O=C(NC(=S)Nc1ccccc1Br)c1ccc2c(c1)OCO2 | 6.04 | 1.84 µM [rising, partial curve] | – |
| COc1ccc(Oc2cccc(Cl)c2CNC(=O)CSCC(=O)O)cc1 | -19.7 | 0.184 µM [falling, full curve] | – |

8 compounds out of the list, sorted by SMILES length, low to high.

| Structure (SMILES) | cell number change [%] | AC50 [1] | AC50 [2] |
| --- | --- | --- | --- |
| CC(=O)c1c(C)nn(CCC(=O)O)c1C | 9.62 | 18.4 µM [falling, partial curve] | 0.092 µM [falling, full curve, poor fit] |
| O=C(NC(=S)Nc1ccccc1Br)c1ccc2c(c1)OCO2 | 6.04 | 1.84 µM [rising, partial curve] | – |
| C=C(C)c1cccc(C(C)(C)NC(=O)Nc2ncccn2)c1 | – | 6.51 µM [falling, single point] | – |
| COc1ccc(Oc2cccc(Cl)c2CNC(=O)CSCC(=O)O)cc1 | -19.7 | 0.184 µM [falling, full curve] | – |
| COc1ccccc1C(=O)N(Cc1ccc(C)o1)C1CCS(=O)(=O)C1 (configuration not stated) | 13.9 | 2.06 µM [rising, partial curve, poor fit] | – |
| COc1ccccc1N1CCN(C(=O)/C=C/c2c(Cl)nc3ccccn23)CC1 | 33.6 | – | 3.66 µM [rising, full curve] |
| CCCN(CC(=O)Nc1cc(Cl)cc(Cl)c1)CC(=O)Nc1ccc(F)c(F)c1F | -14.9 | 16.4 µM [falling, partial curve] | – |
| COc1ccccc1C(=O)N1CCN(CCNC(=O)C(=O)Nc2ccc(Br)c(C)c2)CC1 | 20.8 | 6.51 µM [rising, single point] | – |

From PubChem BioAssay AID2685 (National Center for Advancing Translational Sciences (NCATS), 2010)
